Reference: US20160130293A1, “NOVEL COMPOUND DERIVED FROM PLANT OF GENUS QUAMOCLIT AND COMPOSITION CONTAINING SAME AS ACTIVE INGREDIENT FOR PREVENTING OR TREATING DIABETES” (KOREA RESEARCH INSTITUTE BIOSCIENCE, priority 2013, published 2016)

Assay: Body weight of diabetic mice in 4-week study
Type: in vivo, mouse
Settings: DB/DB mice, 1 mg/kg oral daily for 4 weeks
Procedure: 6-week-old mice (Male C57BL/6J mouse, 20 g, Central Lab. Animal Inc., Seoul) and 6-week-old diabetic mice (Male C57BL/Ks DB/DB mouse, 20 g, Central Lab. Animal Inc., Seoul) were purchased and acclimated under constant temperature (25° C.) and humidity (50%) for 1 week and used for the experiment.
Mice were classified into a normal mouse control group, a diabetic mouse control group, a diabetic mouse group treated with drug (glimepiride), a diabetic mouse group treated with the Quamoclit angulata-derived novel compound (KRIBB-BH-P, 1 mg/kg), and a diabetic mouse group treated with the Quamoclit angulata-derived novel compound (KRIBB-BH-SFP, 1 mg/kg), each group consisting of five mice. The treated mice were orally administered with the drug and compounds daily for 4 weeks. The change in blood glucose in mice of each group was measured every week, and after 4 weeks, blood was collected from each mouse to measure the concentration of glycated hemoglobin. […]

| Structure (SMILES) | Final Weight |
| --- | --- |
| CCCCCC(CCCC(O)CC(=O)O)OC1OC(COC2OC(C)C(OC3CC(O)C(O)C(C)O3)CC2O)C(O)C(O)C1OC1CC(O)C(OC2CC(O)C(OC3CC(O)C(OC)C(C)O3)C(C)O2)C(C)O1 (centres unmarked) [KRIBB-BH-P] | 49.9 ± 0.38 g |
| CCCCCC(CCCC(O)CC(=O)O)OC1OC(C)C(O)C(O)C1O (centres unmarked) [KRIBB-BH-SFP] | 49.8 ± 1.88 g |
